No constants are given. Whether binding was seen depends on the method and setting. In cells and extracts the contact can be indirect. Some entries that bind do so weakly or less than the wild type. Values belong to the binder of their own block, whether it stands above or below them.
Columns and labels:
[1] = biological target: ACVR2B (activin receptor IIB), endogenous (mouse (endogenous in primary mouse articular chondrocytes)) (UniProt P27040); assay: co-IP; endogenous proteins in IL-1β-treated or Ad-activin A-infected chondrocytes; lysis buffer 150 mM NaCl, 1% NP-40, 50 mM Tris, 0.2% SDS, 5 mM NaF; anti-ACVR2B overnight at 4 °C, protein A/G plus beads 6 h at 4 °C; blots for ACVR1B, ACVR2B, NOX4
[2] = biological target: WT ACVR2B (activin receptor IIB), p3XFLAG-CMV-7.1-ACVR2B (UniProt Q13705); assay: co-IP; chondrocytes transfected with p3XFLAG-CMV-7.1-ACVR2B or muACVR2B for 36 h, activin A-overexpression conditions; lysis buffer 150 mM NaCl, 1% NP-40, 50 mM Tris, 0.2% SDS, 5 mM NaF; anti-FLAG overnight at 4 °C, protein A/G plus beads 6 h at 4 °C; blot for NOX4

Amino acid sequences for entries named in this document (tags omitted). Residues count along the entry.
UniProt P27040, residues 19-536: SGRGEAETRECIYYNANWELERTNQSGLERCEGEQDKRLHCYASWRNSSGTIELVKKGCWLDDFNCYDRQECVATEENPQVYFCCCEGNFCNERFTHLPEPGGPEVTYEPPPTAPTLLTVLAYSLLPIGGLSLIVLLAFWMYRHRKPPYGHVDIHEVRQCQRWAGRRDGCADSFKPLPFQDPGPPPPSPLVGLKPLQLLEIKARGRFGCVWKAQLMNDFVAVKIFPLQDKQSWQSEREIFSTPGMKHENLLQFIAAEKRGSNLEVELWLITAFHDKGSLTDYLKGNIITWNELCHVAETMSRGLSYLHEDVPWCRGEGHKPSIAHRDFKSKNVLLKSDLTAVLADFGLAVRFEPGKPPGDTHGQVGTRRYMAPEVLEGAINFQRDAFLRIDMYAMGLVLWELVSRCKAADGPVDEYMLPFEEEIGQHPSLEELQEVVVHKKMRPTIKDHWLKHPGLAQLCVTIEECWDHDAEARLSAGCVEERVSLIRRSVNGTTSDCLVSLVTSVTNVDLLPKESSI
UniProt Q13705, residues 19-512: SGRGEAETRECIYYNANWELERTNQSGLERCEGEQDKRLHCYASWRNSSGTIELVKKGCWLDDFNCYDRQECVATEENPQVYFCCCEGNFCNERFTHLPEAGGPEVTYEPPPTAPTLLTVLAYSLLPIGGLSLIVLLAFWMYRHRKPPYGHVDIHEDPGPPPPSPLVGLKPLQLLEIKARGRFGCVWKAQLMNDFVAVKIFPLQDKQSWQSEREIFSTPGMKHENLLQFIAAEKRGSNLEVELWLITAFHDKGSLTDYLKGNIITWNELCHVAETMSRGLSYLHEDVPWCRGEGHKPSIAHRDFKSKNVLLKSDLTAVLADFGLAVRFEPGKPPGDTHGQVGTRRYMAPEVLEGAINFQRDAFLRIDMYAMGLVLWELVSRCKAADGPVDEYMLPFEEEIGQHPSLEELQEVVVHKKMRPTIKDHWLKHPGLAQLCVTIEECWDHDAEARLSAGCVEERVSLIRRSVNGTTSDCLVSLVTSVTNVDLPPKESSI

binding [1]: binds
B1: ACVR1B, endogenous (receptor, UniProt Q61271 24-505)
chain: SGPRGIQALLCACTSCLQTNYTCETDGACMVSIFNLDGVEHHVRTCIPKVELVPAGKPFYCLSSEDLRNTHCCYIDFCNKIDLRVPSGHLKEPAHPSMWGPVELVGIIAGPVFLLFLIIIIVFLVINYHQRVYHNRQRLDMEDPSCEMCLSKDKTLQDLVYDLSTSGSGSGLPLFVQRTVARTIVLQEIIGKGRFGEVWRGRWRGGDVAVKIFSSREERSWFREAEIYQTVMLRHENILGFIAADNKDNGTWTQLWLVSDYHEHGSLFDYLNRYTVTIEGMIKLALSAASGLAHLHMEIVGTQGKPGIAHRDLKSKNILVKKNGMCAIADLGLAVRHDAVTDTIDIAPNQRVGTKRYMAPEVLDETINMKHFDSFKCADIYALGLVYWEIARRCNSGGVHEDYQLPYYDLVPSDPSIEEMRKVVCDQKLRPNVPNWWQSYEALRVMGKMMRECWYANGAARLTALRIKKTLSQLSVQEDVKI

binding [1]: binds
binding [2]: binds
B2: NADPH oxidase 4 (Nox4), endogenous (protein, UniProt Q9JHI8 1-578)
chain: MAVSWRSWLANEGVKHLCLLIWLSLNVLLFWKTFLLYNQGPEYYYIHQMLGLGLCLSRASASVLNLNCSLILLPMCRTVLAYLRGSQKVPSRRTRRLLDKSKTLHITCGVTICIFSGVHVAAHLVNALNFSVNYSEDFLELNAARYQNEDPRKLLFTTIPGLTGVCMVVVLFLMVTASTYAIRVSNYDIFWYTHNLFFVFYMLLLLHVSGGLLKYQTNVDTHPPGCISLNQTSSQNMSIPDYVSEHFHGSLPRGFSKLEDRYQKTLVKICLEEPKFQAHFPQTWIWISGPLCLYCAERLYRCIRSNKPVTIISVINHPSDVMELRMIKENFKARPGQYIILHCPSVSALENHPFTLTMCPTETKATFGVHFKVVGDWTERFRDLLLPPSSQDSEILPFIHSRNYPKLYIDGPFGSPFEESLNYEVSLCVAGGIGVTPFASILNTLLDDWKPYKLRRLYFIWVCRDIQSFQWFADLLCVLHNKFWQENRPDFVNIQLYLSQTDGIQKIIGEKYHTLNSRLFIGRPRWKLLFDEIAKCNRGKTVGVFCCGPSSISKTLHSLSNRNNSYGTKFEYNKESFS

Reference: article PMC10190289
